The exact form of at least one protein or probe is not confirmed. Tags and fusion partners may be left off the protein sequences shown.
Molecular target: T1, LEM-3(241-704) (Caenorhabditis elegans) (UniProt G5EGA3)
T1 sequence (looked up): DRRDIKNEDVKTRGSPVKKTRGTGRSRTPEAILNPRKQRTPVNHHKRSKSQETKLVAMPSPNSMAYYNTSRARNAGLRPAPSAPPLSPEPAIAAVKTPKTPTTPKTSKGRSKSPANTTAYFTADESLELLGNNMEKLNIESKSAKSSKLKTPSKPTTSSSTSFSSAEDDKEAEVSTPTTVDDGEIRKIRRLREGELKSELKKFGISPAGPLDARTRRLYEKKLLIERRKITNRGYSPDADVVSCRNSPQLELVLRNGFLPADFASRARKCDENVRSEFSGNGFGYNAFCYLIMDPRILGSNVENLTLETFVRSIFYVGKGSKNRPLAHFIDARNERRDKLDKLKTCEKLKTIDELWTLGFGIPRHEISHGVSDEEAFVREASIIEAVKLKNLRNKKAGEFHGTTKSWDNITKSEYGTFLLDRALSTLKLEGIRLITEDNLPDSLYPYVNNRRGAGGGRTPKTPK
Assay: competition with a labelled probe
Conditions: unlabelled HJ gradually reduces shift of HJ-X0-1, 10 mM Tris-HCl pH 7.5, 100 mM NaCl, 5% glycerol, 5 ng/ul poly(dI-dC), 4 C, 1 h, 8.3 nM HJ-X0-1 (0.13 nM for Kd), 6% native PAGE, 0.5x TBE, recombinant protein, residues 241-704, folded or branched DNA

“ACGCTGCCGAATTCTACCAGTGCCTTGCTAGGACATCTTTGCCCACCTGCAGGTTCACCC / GGGTGAACCTGCAGGTGGGCAAAGATGTCCATCTGTTGTAATCGTCAAGCTTTATGCCGT / ACGGCATAAAGCTTGACGATTACAACAGATCATGGAGCTGTCTAGAGGATCCGACTATCG / CGATAGTCGGATCCTCTAGACAGCTCCATGTAGCAAGGCACTGGTAGAATTCGGCAGCGT [unlabelled HJ competitor]”: binds.

Source: paper PMC11975286, “Functional dissection of the conserved C. elegans LEM-3/ANKLE1 nuclease reveals a crucial requirement for the LEM-like and GIY-YIG domains for DNA bridge processing”
